Laboratory results taken from US20240360146A1, “BRUTON'S TYROSINE KINASE AND MUTANT DEGRADER, COMPOSITION AND APPLICATION THEREOF” (HANGZHOU HEALZEN THERAPEUTICS CO., LTD., priority 2021, published 2024).

Sequences of proteins named here, by UniProt entry; tags and fusion partners are left off.
UniProt Q06187, whole entry: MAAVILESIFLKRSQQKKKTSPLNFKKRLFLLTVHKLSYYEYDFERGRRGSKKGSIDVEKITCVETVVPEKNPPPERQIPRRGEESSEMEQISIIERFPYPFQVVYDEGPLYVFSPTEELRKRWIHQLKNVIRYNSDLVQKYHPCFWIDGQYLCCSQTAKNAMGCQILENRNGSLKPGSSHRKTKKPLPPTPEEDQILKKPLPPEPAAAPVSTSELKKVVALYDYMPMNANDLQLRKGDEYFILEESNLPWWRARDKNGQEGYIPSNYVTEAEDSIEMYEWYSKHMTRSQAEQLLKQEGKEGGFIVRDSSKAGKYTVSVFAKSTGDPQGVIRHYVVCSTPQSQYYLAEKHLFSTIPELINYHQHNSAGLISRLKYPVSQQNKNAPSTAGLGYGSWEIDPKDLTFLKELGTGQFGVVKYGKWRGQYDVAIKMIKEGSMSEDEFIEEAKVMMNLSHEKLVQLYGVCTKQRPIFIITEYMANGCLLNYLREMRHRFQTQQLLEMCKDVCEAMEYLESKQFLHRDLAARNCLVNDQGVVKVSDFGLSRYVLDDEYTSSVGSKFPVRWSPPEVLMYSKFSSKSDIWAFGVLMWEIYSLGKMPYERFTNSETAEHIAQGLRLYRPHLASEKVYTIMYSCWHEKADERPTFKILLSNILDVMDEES

What was measured:
BTK = BTK (Homo sapiens, UniProt Q06187); test: BTK degradation activity test in Mino cells; settings: read-out: DC50 (BTK degradation activity), 16 h incubation, Western blot or Elisa
Experimental: Mino cell line cells were seeded at 500,000 to 1,000,000 cells/well in a 6-well plate. The compounds were diluted to different concentrations and added to the plate, and after 16 h of incubation, cells were harvested. After lysing the cells, the total protein concentration in each well was determined using the BCA method. The amount of BTK was determined using Western blot or Elisa method. The amount of undegraded BTK protein at each drug concentration was compared with the amount of BTK protein in the blank control group to calculate the degradation rate. The degradation curve was drawn based on the degradation rate at each concentration, and the half degradation concentration (DC50) was calculated by fitting.

OCI-LY10 cells = test: Inhibitory activity on OCI-LY10 cell proliferation (MTS); settings: read-out: OCI-LY10 IC50, 72 h
Experimental: (§1) The anti-tumor efficacy of the compounds was tested by measuring their inhibitory effects on OCI-LY10 and Mino cell proliferation. OCI-LY10 and Mino cells were cultured in RPMI-1640 medium containing 10% fetal calf serum. OCI-LY10 and Mino cells were digested, inoculated in a 96-well plate at a cell concentration of 10000 cells/well, and incubated overnight at 37° C., 5% CO2. Compounds of different concentrations (1000 nM, 4-fold dilution, 8 points) were added to the 96-well plate and incubated for 72 h (LY10) or 168 h (Mino) at 37° C. and 5% CO2, and then 20 uL of MTS was added to each well. After incubation for 2 h, 25 μl of 10% SDS was added to each well to terminate the reaction. The absorbance at 490 nm and 650 nm were measured with a microplate reader. IC50 was calculated using GraphPad Prism 5.0.

Mino cells = test: Inhibitory activity on Mino cell proliferation (MTS); settings: read-out: Mino IC50, 168 h incubation
Experimental: as §1

| Compound | DC50 (BTK) [nM] | pIC50 (OCI-LY10 cells) | pIC50 (Mino cells) |
| --- | --- | --- | --- |
| CN1CCN([C@@H]2CCCN(c3nnc(C(N)=O)c(Nc4ccc(C5CCN(CC6(F)CCN(c7ccc8c(c7)C(=O)N(C7CCC(=O)NC7=O)C8=O)CC6)CC5)cc4)n3)C2)C1=O (stereo partly drawn) | < 1 | 9.14 | 8.30 |
| CN1CCN([C@@H]2CCCN(c3nnc(C(N)=O)c(Nc4cc(F)c(N5CCN(CC6CCN(c7ccc8c(c7)C(=O)N(C7CCC(=O)NC7=O)C8=O)C6)CC5)cc4F)n3)C2)C1=O (stereo partly drawn) | < 1 | – | – |
| CN1CCN([C@@H]2CCCN(c3nnc(C(N)=O)c(Nc4ccc(N5CCN(CC6CCN(c7ccc8c(c7)C(=O)N(C7CCC(=O)NC7=O)C8=O)C6)CC5)c(F)c4F)n3)C2)C1=O (stereo partly drawn) | < 1 | – | – |
| CN1CCN([C@@H]2CCCN(c3nnc(C(N)=O)c(Nc4ccc(N5CCN(CC6CCN(c7ccc8c(c7)C(=O)N(C7CCC(=O)NC7=O)C8=O)C6)CC5)c(C(F)(F)F)c4)n3)C2)C1=O (stereo partly drawn) | < 1 | – | – |
| CN1CCN([C@@H]2CCCN(c3nnc(C(N)=O)c(Nc4ccc(N5CCN(CC6CCN(c7ccc8c(c7)CN(C7CCC(=O)NC7=O)C8=O)C6)CC5)c(F)c4)n3)C2)C1=O (stereo partly drawn) | < 1 | > 9.00 | 8.16 |

pIC50: −log10 of the molar value. The structures given here were assigned with low confidence; some may be wrong.
